Our source for the binding signal values is paper PMC7819943, “Rice protein-binding microarrays: a tool to detect cis-acting elements near promoter regions in rice”.

Some of the results follow.

For the assay, the target named is T1, OsSMF1 (Oryza sativa, UniProt Q6ZLB0 1-436).
T1 sequence: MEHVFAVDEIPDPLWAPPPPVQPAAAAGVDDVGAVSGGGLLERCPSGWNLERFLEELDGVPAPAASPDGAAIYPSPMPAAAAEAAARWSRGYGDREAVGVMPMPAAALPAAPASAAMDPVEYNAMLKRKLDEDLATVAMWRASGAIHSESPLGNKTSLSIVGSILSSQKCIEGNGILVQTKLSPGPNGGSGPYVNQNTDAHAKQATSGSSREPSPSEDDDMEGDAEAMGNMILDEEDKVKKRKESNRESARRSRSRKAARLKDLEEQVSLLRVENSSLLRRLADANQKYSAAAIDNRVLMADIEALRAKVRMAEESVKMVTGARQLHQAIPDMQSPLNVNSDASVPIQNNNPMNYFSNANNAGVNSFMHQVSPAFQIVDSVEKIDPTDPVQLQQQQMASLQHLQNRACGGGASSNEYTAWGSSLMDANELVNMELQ
The experiment in a line: protein-binding microarray (RPBM); PBS, 2% BSA, 51.3 ng/ul salmon testes DNA, 50 uM zinc acetate, 200 nM TF, 25 C, 1 h; high values mean tight binding. To be noted: protein: recombinant; tags: N-terminal polyhistidine and DsRed monomer fusion (pET32a); chain copies: 2; label: CyDye5-dUTP incorporated in the synthesized complementary strand; 3' TTTTT single-stranded linker to array surface; dsDNA, one strand shown. The gist of the method: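 The binding signal is fluorescence intensity per feature, in arbitrary units, read on an Axon 4000B scanner. Polyhistidine- and DsRed-tagged transcription factors (N-terminal fusions) from E. coli BL21-CodonPlus were purified on Ni–NTA and applied at 200 nM for 1 h at 25 °C to a double-stranded, BSA-blocked custom Agilent array in buffer with 50 µM zinc acetate.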
Regarding “GTGTGTGAAAGCATGGCTAACTCGTCTGGTCAAAGGCAAACGGAGTCACCTAGTGCAG”, the binding signal is 27000 fluorescence intensity (a.u.).

On to “GTGGAGAAACCAAACCTCTAATGATTCATGCTGCCACAAACGGAGTCACCTAGTGCAG”, for which the binding signal is 3450 fluorescence intensity (a.u.).

On to “GTAACCAGGAAATTGCTGAGATGAGTCTTCCTCTTACTCCCGGAGTCACCTAGTGCAG”, for which the binding signal was 3210 fluorescence intensity (a.u.).

On to “CTCGAAGATGGTGGCCCGAGGTGGAGCCCATATCATCATGCGGAGTCACCTAGTGCAG”, for which the binding signal was 3900 fluorescence intensity (a.u.).

For “TACCGCGCGGCGATCGCCGAGTTCGTGGCGACGCTGCTGTCGGAGTCACCTAGTGCAG”, the binding signal is 3230 fluorescence intensity (a.u.).

For the sequence “TTAATGTTAGCTAGGTTTAATTAAACCAGTTTGATATTATCGGAGTCACCTAGTGCAG”, the binding signal was 36600 fluorescence intensity (a.u.).

As for “CATTCGACGCGCACGTCGTATACGCACGCCGCCATGTCAGCGGAGTCACCTAGTGCAG”, the binding signal was 9550 fluorescence intensity (a.u.).

Consider “TAGCATCACATTGTCAAGTCATGGTGCAATTATGCTTATACGGAGTCACCTAGTGCAG”, for which the binding signal was 27300 fluorescence intensity (a.u.).

Take “GAGACTCTGCCTTCCCCGTCTCTGATACTGTATGTGTTGCCGGAGTCACCTAGTGCAG”: the binding signal is 17000 fluorescence intensity (a.u.).

Turning to “GTTCCTTCGGCCAACTCATGTCCCTTCTTCTCCACGTCGTCGGAGTCACCTAGTGCAG”, the binding signal was 6940 fluorescence intensity (a.u.).

In the case of “TCGCGAAATAGCAATGACCACAACACGCGACGTGTCCTGACGGAGTCACCTAGTGCAG”, the binding signal is 3320 fluorescence intensity (a.u.).

For the sequence “GGCTAATATTTTAGTGACGTGATTTTATTCAGCCGTCAGGCGGAGTCACCTAGTGCAG”, the binding signal was 3510 fluorescence intensity (a.u.).

On to “GAGAAATACCGAAAATACTGGTTTGACACGCACCAGGATTCGGAGTCACCTAGTGCAG”, for which the binding signal is 4110 fluorescence intensity (a.u.).

Consider “GCGATTTCACATTCCCATTTGGTAGCGAAGTGATAAATCGCGGAGTCACCTAGTGCAG”, for which the binding signal was 3300 fluorescence intensity (a.u.).

On to “CTTCTTCGATTCCCACGTGGCACACCGACGGCGCGATCAACGGAGTCACCTAGTGCAG”, for which the binding signal was 13800 fluorescence intensity (a.u.).

“TCGGTGACAAGGTTGCCAGGTGGACGGTCAAATCGTTGCGCGGAGTCACCTAGTGCAG”: the binding signal was 4420 fluorescence intensity (a.u.).

In the case of “TTGTCATTGTCGTCGAAGTCCTCCTCCTCTGACAGTGGGTCGGAGTCACCTAGTGCAG”, the binding signal is 3140 fluorescence intensity (a.u.).

Consider “TTGACCTGTGCATCTTGCACCGTCATCCCAGCAATGCAAACGGAGTCACCTAGTGCAG”, for which the binding signal was 5680 fluorescence intensity (a.u.).

For the sequence “GAATATGAATCACCTACTATCGATAATGTGGTAGGGATGACGGAGTCACCTAGTGCAG”, the binding signal was 5070 fluorescence intensity (a.u.).

On to “TTATTTTGTGCAGGTTGTATAGGAGTCGCCACGTGCTGAACGGAGTCACCTAGTGCAG”, for which the binding signal is 4060 fluorescence intensity (a.u.).

In the case of “CTCTTCAGCCGGTCGTCAATGATACAACCAGGTCACGCATCGGAGTCACCTAGTGCAG”, the binding signal was 3950 fluorescence intensity (a.u.).

With “TACGGCGGCGGGAGGACGGCGAGGGTGATGACGACGTACGCGGAGTCACCTAGTGCAG”, the binding signal is 4140 fluorescence intensity (a.u.).

As for “GTTTTATCGGTAACCATATTTGTATGGTAATTTCCGTTAACGGAGTCACCTAGTGCAG”, the binding signal was 3230 fluorescence intensity (a.u.).

Take “GAGCTGCTTGCTCCGGCGAATGTATCAGCGTCAGAGCATTCGGAGTCACCTAGTGCAG”: the binding signal is 3160 fluorescence intensity (a.u.).

Take “CTGCTCGGCGCCAAGAAGGAGAGAGCCGAGAGGGTGTGGACGGAGTCACCTAGTGCAG”: the binding signal was 27700 fluorescence intensity (a.u.).

On to “AAGCCTACTGCTGATGTTACCGGGATCCACATACCTCACACGGAGTCACCTAGTGCAG”, for which the binding signal is 3510 fluorescence intensity (a.u.).

In the case of “TTGTCGCGATGTGCCCCTTCTACGGGGTGCCACGTCACATCGGAGTCACCTAGTGCAG”, the binding signal is 39500 fluorescence intensity (a.u.).

Regarding “GCAGGCGTCGGTTTCGCGGCTGGCAGCGGCGGCTCGCTCACGGAGTCACCTAGTGCAG”, the binding signal was 3200 fluorescence intensity (a.u.).

With “ACTCGTCTGATTATTTTCAGTTGCGTAACTCCCCTAATTACGGAGTCACCTAGTGCAG”, the binding signal is 3670 fluorescence intensity (a.u.).

With “TAAGCTCCAAAGCCAGCTATAGCATGAGCTCCAAAATATACGGAGTCACCTAGTGCAG”, the binding signal is 45700 fluorescence intensity (a.u.).

With “CTCAAATTTAGATAGTTTGTCAACACTGACATTGATTCTCCGGAGTCACCTAGTGCAG”, the binding signal is 29000 fluorescence intensity (a.u.).

“CCATCCTTGCGCCGCGCCCCGACGAGCCGTCGCCACGTGGCGGAGTCACCTAGTGCAG”: the binding signal is 21200 fluorescence intensity (a.u.).

For the sequence “AGAACATTACTAAAATTGACCTAGTCATGAAATTCACTCCCGGAGTCACCTAGTGCAG”, the binding signal is 3310 fluorescence intensity (a.u.).

In the case of “TATTAATAGTCAACGTTTAATATTTATAATTAGTGTCCAACGGAGTCACCTAGTGCAG”, the binding signal was 4430 fluorescence intensity (a.u.).

Regarding “GAAACAATGGTCAGTAGTCACCAGTTTTGCCCTTAGATGACGGAGTCACCTAGTGCAG”, the binding signal is 3360 fluorescence intensity (a.u.).

“TTAATACAAATCCGTTGCATCACACGAGTCATATGCTAGTCGGAGTCACCTAGTGCAG”: the binding signal is 5010 fluorescence intensity (a.u.).

Consider “CTCCTTAAACTTGATGACTCCTTATATGGACAGTTTTAGACGGAGTCACCTAGTGCAG”, for which the binding signal was 3940 fluorescence intensity (a.u.).

“TTGCGAATAGTGCTAGAAATACTTACGTGACTTTGCAACACGGAGTCACCTAGTGCAG”: the binding signal is 3160 fluorescence intensity (a.u.).

As for “AGTAATCTGGAGCGGGAGGTGGGGCTCCACTCCACGTACCCGGAGTCACCTAGTGCAG”, the binding signal was 3460 fluorescence intensity (a.u.).

Consider “TCATCCGCCTCTCACCGATGCGTGTACACAGAGAAAGCGTCGGAGTCACCTAGTGCAG”, for which the binding signal is 3750 fluorescence intensity (a.u.).

Turning to “CATTGCCATGGTTTCACCGAGAGCGTGGGCATCCATGGAACGGAGTCACCTAGTGCAG”, the binding signal is 3430 fluorescence intensity (a.u.).

As to “GGGCCTTCACGAATCAGGAGCACACGTTGGATGTGTGGCTCGGAGTCACCTAGTGCAG”, the binding signal was 3280 fluorescence intensity (a.u.).

Regarding “AGTACCGGTATTCGCGAAGGGAATTGTAAAGTTGGGGTAGCGGAGTCACCTAGTGCAG”, the binding signal is 11500 fluorescence intensity (a.u.).

“AGCCAGTACGCAGCCATAATCAGCAAGAGGATCAGGTTTGCGGAGTCACCTAGTGCAG”: the binding signal is 3260 fluorescence intensity (a.u.).

Consider “CACAACTGAATCCTCTTGACTCACCATTAATGTAGAGGCTCGGAGTCACCTAGTGCAG”, for which the binding signal was 4960 fluorescence intensity (a.u.).

“ATATTTCACTACCATAGACACTAAAATTGGAGACGTCACTCGGAGTCACCTAGTGCAG”: the binding signal was 3820 fluorescence intensity (a.u.).

For the sequence “ACCAATAACCTATTGTCCTCTAGTCATACCACGTAATCACCGGAGTCACCTAGTGCAG”, the binding signal is 4540 fluorescence intensity (a.u.).

For “GTCTTTCCGAGTGGTGGCGGCGGTGGCTGATCTGCTTGTGCGGAGTCACCTAGTGCAG”, the binding signal is 3420 fluorescence intensity (a.u.).

For “CGCCTCCTCCAAGATCTTCCATCGTAGGTCGTCACCCACGCGGAGTCACCTAGTGCAG”, the binding signal is 3440 fluorescence intensity (a.u.).

With “GACGGATTGCTTTGTGCATTGTCAATCAGTACATCCTCTTCGGAGTCACCTAGTGCAG”, the binding signal is 3610 fluorescence intensity (a.u.).

“AAACCAGCGACACGTTCCTGTCTTCCTCATATTTACTAAACGGAGTCACCTAGTGCAG”: the binding signal is 3300 fluorescence intensity (a.u.).

As to “GCAGGTTTGCAAGCGTGGTACGTGTTTACCTAAACTCTTGCGGAGTCACCTAGTGCAG”, the binding signal is 3360 fluorescence intensity (a.u.).

Take “AAAATGCCATTTCCACCACGTGGGTGAGTGCGCGCGCGGGCGGAGTCACCTAGTGCAG”: the binding signal was 4270 fluorescence intensity (a.u.).

Take “GCAAAAGATCGAACACGTTGTGTGCGTGTGTGCGCGCGCCCGGAGTCACCTAGTGCAG”: the binding signal was 3200 fluorescence intensity (a.u.).
